# Reference: PubChem BioAssay AID2685 (National Center for Advancing Translational Sciences (NCATS), 2010)
# The other results are listed elsewhere or left out. Further columns of the screen follow, without active or inactive calls. Compounds called inactive in the main read-out are mostly missing here. Potencies come from curve fits of mixed quality, noted in brackets.
# Assay: qHTS Assay for Lipid Storage Modulators in Drosophila S3 Cells;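 for cell number change: cells counted by Cell Tracker Red CMTPX staining in the red channel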
# Conditions: BODIPY lipid droplet fluorescence, 18-24 h; for cell number change: measured here: cell count max response, cells fed with added oleic acid
# How it was run: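 Laser-scanning cytometry quantifies lipid droplet accumulation (500–530 nm total intensity; droplet/cell object ratio) in oleic acid-fed (400 uM added) Drosophila S3 cells treated with a concentration series. 20 uM Triacsin C defined 100% inhibition.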
# [1] = measured here: lipid fluorescence (Fed channel) AC50, cells fed with added oleic acid
# [2] = measured here: cell number channel AC50, cells fed with added oleic acid
Structure (SMILES),cell number change [%],AC50 [1],AC50 [2]
CCCn1cnc2cc(NCc3ccccn3)ccc21,16.1,,
S=C(NCc1ccccn1)Nc1ccccc1Cl,-12,"29.1 µM [rising, single point]",
Brc1cccc(-c2nnc3n2CCC3)c1,,"0.00517 µM [rising, full curve, poor fit]","0.0731 µM [rising, partial curve]"
CCCN1CC(O)=C(C#N)C1=O,-21.9,"4.61 µM [falling, full curve]",
Cc1cccc(NC(=S)NCc2ccco2)c1C,,"6.51 µM [rising, partial curve]","6.51 µM [rising, single point]"
COC(=O)C1(C)Nc2ccccc2C(=O)N1c1ccccc1C (centres undefined),-22.1,"6.51 µM [falling, single point]",
CCOC(=O)CSc1nc(N)c(C#N)c(-c2cccs2)c1C#N,-18.5,"0.731 µM [falling, full curve, poor fit]",
O=C(c1ccc2c(c1)N(Cc1ccccc1)C(=O)CS2)N1CCOCC1,,"4.11 µM [falling, partial curve]",
COc1ccc(/C(O)=C2/C(=O)C(=O)N(CCCN(C)C)C2c2ccccc2)cc1Cl (centres undefined),,"0.206 µM [falling, full curve]",
CSc1nnc(SCC2=NNC(=O)SC2)s1,-14.4,"32.6 µM [falling, single point]",
Cc1cc(NS(=O)(=O)c2ccc(NC(=S)NC(=O)c3ccncc3)cc2)no1,5.34,,"0.461 µM [rising, partial curve]"
Cc1cc(NC(=O)CN2CCCC2c2nc3ccccc3s2)no1 (centres undefined),-32.4,,"0.00517 µM [falling, full curve, poor fit]"
CCOC(=O)N1CCC(NC(=O)c2cc(C(=O)Nc3ccc(OC)c(OC)c3)ccc2CO)CC1,-30,"2.59 µM [falling, full curve, poor fit]",
COc1cc(NC(=O)C2CC(c3ccccc3O)=NO2)c(OC)cc1Cl (centres undefined),-32.8,"5.17 µM [falling, full curve]","16.4 µM [falling, partial curve, poor fit]"
CCN(CC)S(=O)(=O)c1cc(NS(=O)(=O)c2cccc(Cl)c2)ccc1C,,"6.51 µM [falling, partial curve, poor fit]",
COc1ccc(-c2nc3c(Br)c(N)c(Br)cc3o2)cc1,-35.8,"23.1 µM [falling, single point]","23.1 µM [falling, single point]"
CN(CC(=O)Nc1ccccc1Br)CC(=O)NC(c1ccccc1)c1ccccc1,29.8,"2.91 µM [rising, partial curve]",
CC(C)(C)c1ccc(OCC(=O)N2CCN(c3ncccn3)CC2)cc1,16.5,,"0.00461 µM [rising, full curve, poor fit]"
O=C(NCC(=O)N(c1ccc(F)cc1)C(C(=O)NC1CCCCC1)c1ccncc1)c1ccco1 (centres undefined),9.24,,
Cc1cc(CSc2ccccc2)ccc1NC(=O)c1ccc(Br)cc1,1.11,"5.17 µM [rising, full curve, poor fit]",

Structure (SMILES),cell number change [%],AC50 [1],AC50 [2]
COc1ccc(C(=O)N(C)Cc2ccc(C)o2)cc1OC1CCN(C(C)=O)CC1,-3.47,"29.1 µM [falling, single point]",
CSc1ccc(CCNC(=O)CS(=O)(=O)Cc2nc(-c3ccccc3F)oc2C)cc1,21.8,"18.4 µM [falling, single point]",
O=C1C(Cl)=C(NCCc2ccccc2)C(=O)N1CCc1ccccc1,55.5,"0.517 µM [rising, full curve]","0.092 µM [rising, full curve, poor fit]"
COC(=O)C1=C(C)N(C(C)c2ccccc2)C(=O)/C1=C\c1ccco1 (centres undefined),,,"6.51 µM [rising, partial curve, poor fit]"
Cc1ccc(NC(=O)COC(=O)CNC(=O)c2ccc3ccccc3c2)c([N+](=O)[O-])c1,16.8,,
Cc1ccc(OCC(=O)N/N=C/c2cn[nH]c2-c2ccc(Cl)c(Cl)c2)cc1,-29.7,"20.6 µM [falling, partial curve]",
CCn1nnnc1SCC(=O)c1cc(OC)ccc1OC,0.291,"1.3 µM [rising, full curve]",
O=C(OCC(=O)c1c[nH]c2ccccc12)c1cc2ccccc2cc1O,-4.6,"6.51 µM [rising, single point]","0.231 µM [falling, full curve, poor fit]"
Cc1oc(CSCC2CCCO2)cc1C(=O)O (centres undefined),9.59,,
COCCCN1C(=O)c2ccccc2C1C(=O)NC1CCCCCC1 (centres undefined),16.1,,
COc1ccc(C(=O)Nc2nnc(-c3ccc(F)cc3)s2)c(OC)c1,12.5,,
COCCCNC(=O)c1ccc(N(C)S(C)(=O)=O)cc1,-6.54,"20.6 µM [falling, single point]",
CCCCN(CCCC)CP(=O)(c1ccccc1)c1ccccc1,92.5,,"18.4 µM [rising, partial curve]"
O=c1oc2ccccc2nc1/C=C(O)/C=C\c1ccccc1,-66.3,"0.092 µM [falling, full curve, poor fit]","32.6 µM [falling, partial curve, poor fit]"
CCC(CC)C(=O)OCC(=O)Nc1cc(OC)c([N+](=O)[O-])cc1C,-0.148,,"6.51 µM [rising, single point]"
CC1(C)CC(=O)C(C=NCCCN2CCCC2=O)=C(O)C1,-7.18,,
S=c1[nH]nc(-c2ccc(Br)cc2)n1Cc1ccccc1,-36.5,"20.6 µM [falling, single point]","29.1 µM [falling, single point]"
CCCNC(=S)NC1CC2CCC(C1)N2Cc1ccccc1 (centres undefined),3.17,,
CC(C)CCN(C(=O)c1ccc(Br)cc1)c1c(N)n(Cc2ccccc2)c(=O)[nH]c1=O,-2.61,"29.1 µM [rising, single point]",
COc1ccc(S(=O)(=O)n2cnc3cc(C)c(C)cc32)cc1C,,"0.82 µM [rising, partial curve]","0.411 µM [rising, full curve]"

# Part of the list above, as tab-separated lines:
Structure (SMILES)	cell number change [%]	AC50 [1]	AC50 [2]
CCn1nnnc1SCC(=O)c1cc(OC)ccc1OC	0.291	1.3 µM [rising, full curve]	
COCCCN1C(=O)c2ccccc2C1C(=O)NC1CCCCCC1 (centres undefined)	16.1		
COc1ccc(C(=O)Nc2nnc(-c3ccc(F)cc3)s2)c(OC)c1	12.5		
COCCCNC(=O)c1ccc(N(C)S(C)(=O)=O)cc1	-6.54	20.6 µM [falling, single point]	
O=c1oc2ccccc2nc1/C=C(O)/C=C\c1ccccc1	-66.3	0.092 µM [falling, full curve, poor fit]	32.6 µM [falling, partial curve, poor fit]
CCC(CC)C(=O)OCC(=O)Nc1cc(OC)c([N+](=O)[O-])cc1C	-0.148		6.51 µM [rising, single point]
CC1(C)CC(=O)C(C=NCCCN2CCCC2=O)=C(O)C1	-7.18		
CCCNC(=S)NC1CC2CCC(C1)N2Cc1ccccc1 (centres undefined)	3.17		
CC(C)CCN(C(=O)c1ccc(Br)cc1)c1c(N)n(Cc2ccccc2)c(=O)[nH]c1=O	-2.61	29.1 µM [rising, single point]	
COc1ccc(S(=O)(=O)n2cnc3cc(C)c(C)cc32)cc1C		0.82 µM [rising, partial curve]	0.411 µM [rising, full curve]

# Single entries from the entries so far:
# Under AC50 [2], O=C(OCC(=O)c1c[nH]c2ccccc12)c1cc2ccccc2cc1O has 0.231 µM [falling, full curve, poor fit]
# Under cell number change [%], S=c1[nH]nc(-c2ccc(Br)cc2)n1Cc1ccccc1 has -36.5

# The listing continues:

Structure (SMILES),cell number change [%],AC50 [1],AC50 [2]
CCN1CCN(c2nc(S(=O)(=O)c3ccc(C)cc3)c(Cl)s2)CC1,,"13 µM [rising, partial curve, poor fit]",
CN(C(=O)COC(=O)Cc1c(Cl)cccc1Cl)c1c(N)n(Cc2ccccc2)c(=O)[nH]c1=O,6.21,,"0.0291 µM [rising, full curve, poor fit]"
CN(C)C(=O)c1c(C(F)(F)F)nn(C)c1Cl,-38.6,"0.58 µM [falling, single point]","20.6 µM [falling, single point]"
COc1ccc(/C(=N/Nc2ncnc3ccccc23)C(=O)O)cc1,6.35,"29.1 µM [rising, single point]",
CC(=O)N/C(=C\c1ccccc1)C(=O)OCc1ccc(C)cc1,43.2,"25.9 µM [rising, single point]","23.1 µM [rising, single point]"
CC1=C(C(=O)OC(C)C)C(c2ccncc2)n2ncnc2N1 (centres undefined),,,"0.184 µM [rising, full curve, poor fit]"
CC1(C)CC(=O)C2=C(C1)OC(N)=C(C#N)C21CCC2(CC1)OCCO2,,"6.51 µM [rising, single point]","0.184 µM [rising, partial curve, poor fit]"
O=C(Nc1ccc(F)cc1)OCCOc1ccc(Br)cc1,-11.9,"0.00411 µM [rising, full curve, poor fit]",
CNC(=O)/C(C#N)=C/c1cn(CC(=O)NCc2ccco2)c2ccccc12,-7.79,,
O=C(COC(=O)c1cc(Br)ccc1Cl)NC(=O)NCc1ccccc1,2.22,"0.13 µM [falling, full curve, poor fit]",
C=CCNc1nnc(SC2CC(=O)N(c3ccc(OC)cc3)C2=O)s1 (centres undefined),-47,"29.1 µM [falling, single point]","29.1 µM [falling, single point]"
O=C(Oc1ccccc1)c1cccc(N2C(=O)CCC2=O)c1,-9.19,"6.51 µM [falling, single point]","0.231 µM [falling, partial curve]"
CCCCCCCCCCOC(=O)Cn1c(COc2cccc(C)c2)[n+](C)c2ccccc21,-36.5,"4.11 µM [falling, full curve]","9.2 µM [falling, partial curve]"
COc1cccc(NC(=O)C(Sc2nnnn2C)c2ccccc2)c1 (centres undefined),7.95,,
CCCCCNC(=O)CN(c1ccc2c(c1)OCO2)S(C)(=O)=O,-22.9,,"0.00517 µM [falling, full curve, poor fit]"
CC[C@@]12C(=O)N(c3ccc(C)cc3)C(=O)N1[C@H](c1ccc(OC)cc1)[C@@H]1C(=O)N(C(C)(C)C)C(=O)[C@@H]12,38.8,"18.4 µM [falling, single point]",
CCCNC(=O)c1onc(CSc2ccc(F)cc2)c1C(=O)NC(C)C,-26.3,"1.16 µM [falling, full curve, poor fit]",
NC(N)=N/N=C/c1ccc(Cl)c([N+](=O)[O-])c1,30.8,"1.64 µM [rising, partial curve, poor fit]","1.46 µM [rising, full curve]"
O=[N+]([O-])c1cccc(C2Nc3cccc4cccc(c34)N2)c1,-24.8,"23.1 µM [falling, partial curve, poor fit]",
